Laboratory results: PubChem BioAssay AID2662 (National Center for Advancing Translational Sciences (NCATS), 2010)
The whole screen tested about 290,000 compounds, of which about 110 (0.038%) were called active. Inconclusive results, whose numbers are uncertain, are shown with a selection of clear calls. Calls follow the shape of the dose curve; as a rule, active = well fitted inhibition curve with a large enough effect in the polarisation, with a control signal flat (not every such curve was filed as active); inconclusive = small, poorly fitted or top-dose-only effect, or effect the other way, or a change in a side signal; inactive = no such curve, though single readings can be large or run the other way; the % refers to the polarisation. Potencies beside an inconclusive call are fits to weak or partial responses and may not hold up. “Side channel” marks fits to a control or component signal instead of the main read-out.
Potency is read from the fitted curve at half-maximal effect.

Sequences of proteins named here, by UniProt entry; tags and fusion partners are left off.
UniProt Q03164, whole entry, looked up: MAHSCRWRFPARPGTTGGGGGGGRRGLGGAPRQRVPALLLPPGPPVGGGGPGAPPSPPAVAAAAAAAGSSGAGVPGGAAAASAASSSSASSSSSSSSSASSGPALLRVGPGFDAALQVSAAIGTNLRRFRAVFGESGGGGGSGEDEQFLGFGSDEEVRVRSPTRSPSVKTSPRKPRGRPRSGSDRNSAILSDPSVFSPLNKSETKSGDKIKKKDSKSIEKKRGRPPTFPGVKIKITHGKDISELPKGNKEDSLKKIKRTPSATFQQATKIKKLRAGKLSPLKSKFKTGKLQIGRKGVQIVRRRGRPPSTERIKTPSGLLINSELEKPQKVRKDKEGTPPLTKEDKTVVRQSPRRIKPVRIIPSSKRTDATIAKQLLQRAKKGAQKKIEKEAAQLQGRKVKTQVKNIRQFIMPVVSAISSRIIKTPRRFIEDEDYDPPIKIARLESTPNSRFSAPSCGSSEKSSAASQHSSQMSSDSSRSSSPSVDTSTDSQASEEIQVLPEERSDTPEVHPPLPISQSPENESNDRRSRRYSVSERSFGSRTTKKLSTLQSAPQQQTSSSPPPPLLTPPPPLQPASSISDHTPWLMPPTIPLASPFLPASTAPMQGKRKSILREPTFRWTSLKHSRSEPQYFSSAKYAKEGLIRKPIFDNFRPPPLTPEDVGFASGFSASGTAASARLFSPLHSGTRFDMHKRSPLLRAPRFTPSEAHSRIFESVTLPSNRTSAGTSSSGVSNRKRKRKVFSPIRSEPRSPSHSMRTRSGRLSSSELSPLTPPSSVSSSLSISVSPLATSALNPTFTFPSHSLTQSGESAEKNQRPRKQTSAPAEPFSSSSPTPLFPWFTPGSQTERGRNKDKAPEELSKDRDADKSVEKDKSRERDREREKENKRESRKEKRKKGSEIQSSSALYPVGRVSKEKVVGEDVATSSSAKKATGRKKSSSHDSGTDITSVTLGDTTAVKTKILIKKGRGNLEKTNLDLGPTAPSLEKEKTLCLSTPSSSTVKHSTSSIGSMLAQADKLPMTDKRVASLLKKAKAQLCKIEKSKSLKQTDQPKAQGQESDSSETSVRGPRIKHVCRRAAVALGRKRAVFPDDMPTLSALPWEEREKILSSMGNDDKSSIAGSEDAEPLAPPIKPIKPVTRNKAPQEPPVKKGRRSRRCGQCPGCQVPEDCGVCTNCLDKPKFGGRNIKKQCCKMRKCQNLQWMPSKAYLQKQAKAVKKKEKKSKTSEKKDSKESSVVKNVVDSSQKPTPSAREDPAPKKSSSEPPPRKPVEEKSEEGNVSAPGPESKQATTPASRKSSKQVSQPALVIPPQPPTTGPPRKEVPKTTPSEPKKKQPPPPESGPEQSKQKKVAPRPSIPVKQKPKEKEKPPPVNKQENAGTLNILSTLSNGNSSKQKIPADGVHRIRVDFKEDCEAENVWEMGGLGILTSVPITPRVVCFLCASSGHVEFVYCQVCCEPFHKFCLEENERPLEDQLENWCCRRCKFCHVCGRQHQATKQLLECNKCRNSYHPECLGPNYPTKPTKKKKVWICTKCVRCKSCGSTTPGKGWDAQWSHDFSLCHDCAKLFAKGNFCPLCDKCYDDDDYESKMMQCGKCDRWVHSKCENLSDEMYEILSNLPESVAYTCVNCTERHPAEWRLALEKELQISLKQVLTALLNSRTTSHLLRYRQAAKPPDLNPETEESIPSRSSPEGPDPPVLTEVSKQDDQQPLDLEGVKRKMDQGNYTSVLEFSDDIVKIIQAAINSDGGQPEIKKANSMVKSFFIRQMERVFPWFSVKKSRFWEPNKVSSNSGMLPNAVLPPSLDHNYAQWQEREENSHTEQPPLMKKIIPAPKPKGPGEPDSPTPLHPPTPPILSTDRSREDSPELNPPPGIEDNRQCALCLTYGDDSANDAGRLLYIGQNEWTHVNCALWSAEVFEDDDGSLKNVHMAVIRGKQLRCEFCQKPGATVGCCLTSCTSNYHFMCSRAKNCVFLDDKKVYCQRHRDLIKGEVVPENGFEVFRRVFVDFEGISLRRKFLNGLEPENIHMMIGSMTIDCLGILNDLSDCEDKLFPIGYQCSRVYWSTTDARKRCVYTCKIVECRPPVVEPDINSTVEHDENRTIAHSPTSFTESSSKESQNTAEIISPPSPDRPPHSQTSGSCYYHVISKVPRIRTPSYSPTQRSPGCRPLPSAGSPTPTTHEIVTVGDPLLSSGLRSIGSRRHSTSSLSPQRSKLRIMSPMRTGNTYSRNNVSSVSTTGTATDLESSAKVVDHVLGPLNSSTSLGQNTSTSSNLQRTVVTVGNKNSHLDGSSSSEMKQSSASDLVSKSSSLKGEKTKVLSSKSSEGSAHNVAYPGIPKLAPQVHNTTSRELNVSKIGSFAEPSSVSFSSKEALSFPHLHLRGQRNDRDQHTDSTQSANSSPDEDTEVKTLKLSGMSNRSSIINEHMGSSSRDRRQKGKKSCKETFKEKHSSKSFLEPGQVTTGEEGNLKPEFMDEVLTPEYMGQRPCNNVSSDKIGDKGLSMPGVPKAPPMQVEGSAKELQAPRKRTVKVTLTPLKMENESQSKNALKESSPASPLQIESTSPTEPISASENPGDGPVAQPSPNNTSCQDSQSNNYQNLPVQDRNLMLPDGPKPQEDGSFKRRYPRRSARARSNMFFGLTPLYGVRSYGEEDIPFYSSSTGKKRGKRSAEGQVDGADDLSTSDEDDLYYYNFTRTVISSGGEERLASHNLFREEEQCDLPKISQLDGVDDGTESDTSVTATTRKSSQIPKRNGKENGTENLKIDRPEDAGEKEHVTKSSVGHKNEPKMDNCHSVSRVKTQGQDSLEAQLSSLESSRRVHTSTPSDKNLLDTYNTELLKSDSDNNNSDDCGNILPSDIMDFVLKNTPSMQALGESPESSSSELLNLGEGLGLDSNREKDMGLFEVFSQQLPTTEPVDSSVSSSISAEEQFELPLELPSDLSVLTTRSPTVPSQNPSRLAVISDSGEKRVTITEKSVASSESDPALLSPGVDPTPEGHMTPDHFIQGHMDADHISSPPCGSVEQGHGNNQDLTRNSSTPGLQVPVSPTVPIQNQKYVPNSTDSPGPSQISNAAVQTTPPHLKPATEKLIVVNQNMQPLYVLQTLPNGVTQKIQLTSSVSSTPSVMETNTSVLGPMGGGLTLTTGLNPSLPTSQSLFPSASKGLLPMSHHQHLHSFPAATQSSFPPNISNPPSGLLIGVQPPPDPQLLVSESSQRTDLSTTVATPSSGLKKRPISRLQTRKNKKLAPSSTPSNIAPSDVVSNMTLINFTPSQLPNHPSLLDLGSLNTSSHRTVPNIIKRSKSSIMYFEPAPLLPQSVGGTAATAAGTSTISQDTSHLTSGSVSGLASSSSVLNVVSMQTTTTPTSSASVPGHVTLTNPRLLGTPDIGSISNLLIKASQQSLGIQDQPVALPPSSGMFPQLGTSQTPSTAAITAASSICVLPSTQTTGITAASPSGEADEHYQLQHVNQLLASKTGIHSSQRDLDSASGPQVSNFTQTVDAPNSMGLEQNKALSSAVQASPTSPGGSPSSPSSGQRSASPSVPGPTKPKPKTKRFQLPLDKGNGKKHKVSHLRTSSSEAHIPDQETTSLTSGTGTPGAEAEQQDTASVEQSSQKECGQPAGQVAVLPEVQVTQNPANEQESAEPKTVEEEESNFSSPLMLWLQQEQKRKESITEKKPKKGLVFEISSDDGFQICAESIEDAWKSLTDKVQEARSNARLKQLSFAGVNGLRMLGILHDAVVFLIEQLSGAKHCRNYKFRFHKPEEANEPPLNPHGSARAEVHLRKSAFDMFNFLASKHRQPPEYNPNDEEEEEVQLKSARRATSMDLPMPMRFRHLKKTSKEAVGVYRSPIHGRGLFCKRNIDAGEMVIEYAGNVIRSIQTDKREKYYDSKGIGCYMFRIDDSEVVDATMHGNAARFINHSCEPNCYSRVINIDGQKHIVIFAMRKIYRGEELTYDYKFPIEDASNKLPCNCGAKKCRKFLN

These compounds were tested against Histone-lysine N-methyltransferase 2A (Homo sapiens) (UniProt Q03164) (assay: qHTS Fluorescence Polarization Assay for Inhibitors of MLL CXXC domain - DNA interaction). Details: MLL-CXXC / FITC-HOXA9 DNA fluorescence polarization; series mostly up to 115 µM.
Outline: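 Fluorescence polarization: 7 uM MLL-CXXC (stock) preincubated 5 min with compounds, then 50 nM fluorescein-HOX-A9 DNA (stock) added; 30 min ambient. Buffer 50 mM Tris-HCl pH 7.5, 50 mM NaCl, 1 mM DTT, 0.05% BSA.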
In the case of `COc1ccc2nc(N3C(=O)CC(C(C)c4ccccc4)C3=O)sc2c1` (stereo not drawn), the Potency is reported as “inactive”. With `COC(=O)c1cc(-c2c(-c3ccc4c(c3)OCO4)noc2-c2ccsc2)cc([N+](=O)[O-])c1` the Potency was inconclusive: 8.91 µM [fluorescent, side channel, single point]. In the case of `CCCCn1c2c(c(=N)c3ccccc31)CCC2`, the Potency is reported as “inactive”. `Cc1cc(NC(=O)CSc2nc3ccccc3c(=O)n2Cc2ccc(F)cc2)no1` was tested, and the Potency was “inactive”. In the case of `Cc1cc(O)cc2c1C(=O)/C(=C/c1ccco1)O2`, the Potency is reported as inconclusive: 70.8 µM [inhibitor, single point]. With `COc1ccc(OCc2nnc(SCC(=O)Nc3ccc(C)cc3)o2)cc1` the Potency was inconclusive: 89.1 µM [fluorescent, side channel, partial curve]. `O=C(/C=C/c1ccc(OCc2ccccc2)c(OCc2ccccc2)c1)c1cccnc1` was tested, and the Potency was “inactive”. With `Cn1c(/C=C/c2ccccc2[N+](=O)[O-])nc2ccccc2c1=O` the Potency was inconclusive: 31.6 µM [fluorescent, single point]. For `CCCN1C(=O)/C(=C/C=C2\N(CC)c3ccccc3C2(C)C)SC1=S`, the Potency was inconclusive: 7.08 µM [fluorescent, side channel, full curve]. For `CCOc1ccccc1C(=O)N[C@H](C(=O)Nc1ccc(OC)c(S(=O)(=O)N2CCOCC2)c1)C(C)C`, the Potency was inconclusive: 70.8 µM [fluorescent, side channel, single point]. `COc1cc(/C=N/Nc2ccc(C(=O)O)cc2)ccc1O` was tested, and the Potency was “inactive”. In the case of `COc1cc(OC)c(-c2c3cc(O)c(=O)cc-3oc3cc(O)c(O)cc23)cc1OC`, the Potency is reported as inconclusive: 5.62 µM [fluorescent, side channel, full curve]. In the case of `CCN1C(=O)/C(=C/c2cccs2)N(C)C1=S`, the Potency is reported as inconclusive: 28.2 µM [inhibitor, partial curve]. With `O=C(COC(=O)c1ccc(NS(=O)(=O)c2cccs2)cc1O)Nc1nc2ccccc2s1` the Potency was “inactive”. With `CN(C(=O)COC(=O)c1ccccc1SCC(=O)N1CCCC1)c1ccccc1` the Potency was inconclusive: 89.1 µM [quencher, side channel, single point]. With `Cc1n[nH]c(=O)nc1N/N=C/c1ccco1` the Potency was “inactive”. `O=C(Nc1ccc(Cl)cc1)Nc1cccc2nsnc12` was tested, and the Potency was inconclusive: 39.8 µM [fluorescent, side channel, partial curve]. In the case of `CC(=O)c1sc2nsc(SCCN3CCCC3)c2c1N`, the Potency is reported as inconclusive: 100 µM [inhibitor, partial curve, poor fit]. `CCN(CC)c1ccc2cc(S(=O)(=O)c3ccc(C)cc3)c(=O)oc2c1` was tested, and the Potency was inconclusive: 39.8 µM [fluorescent, side channel, partial curve]. For `O=C(NCCN1CCOCC1)C(=O)NCC1OCCN1S(=O)(=O)c1ccc(F)cc1` (stereo not drawn), the Potency was inconclusive: 17.8 µM [fluorescent, side channel, partial curve]. `CCOC(=O)c1ccc(NC(=O)NCc2cccnc2)cc1` was tested, and the Potency was inconclusive: 7.08 µM [quencher, side channel, partial curve]. For `O=C(Nc1cccc(Cl)c1)c1ccc2c(c1)SC1=NS(=O)(=O)CCN12`, the Potency was inconclusive: 39.8 µM [fluorescent, side channel, single point]. With `CCCCOc1ncnc2c1[nH]c1ccc(OCC)cc12` the Potency was “inactive”. With `CN(C(=O)CC1C(=O)NCCN1Cc1ccccc1C(F)(F)F)C1CCOCC1` (stereo not drawn) the Potency was inconclusive: 11.2 µM [quencher, side channel, single point]. In the case of `CCCCCCC(=O)Nc1c2c(nc3ccccc13)N(C)CC2`, the Potency is reported as “inactive”. With `COc1ccc(/C(O)=C/c2nc3ccc(C(=O)NCCc4cccc(C)c4)cc3[nH]c2=O)cc1OC` the Potency was inconclusive: 70.8 µM [fluorescent, side channel, single point]. With `CCN(CC)c1ccc(C=C2C(=O)OC3(CCCCC3)OC2=O)cc1` the Potency was inconclusive: 31.6 µM [fluorescent, side channel, single point]. For `Cc1cc(C)n(CC(O)COc2ccccc2Br)n1` (stereo not drawn), the Potency was inconclusive: 1.41 µM [fluorescent, side channel, full curve, poor fit]. With `COc1ccc(C(=O)OCCN2CCCCC2)cc1` the Potency was “inactive”. With `Fc1ccc2nc(Nc3nc4c(F)cccc4s3)sc2c1` the Potency was inconclusive: 89.1 µM [quencher, side channel, single point]. `COc1cc(OC)c(C2=NOC(C(=O)Nc3ccc4c(c3)OCO4)C2)cc1Cl` (stereo not drawn) was tested, and the Potency was inconclusive: 11.2 µM [fluorescent, side channel, single point]. For `O=C1NC(=S)N(C(=O)c2ccc(F)cc2)/C1=C/c1ccccc1`, the Potency was inconclusive: 31.6 µM [fluorescent, side channel, partial curve]. With `CC1CCCCC1NC(=O)/C=C/c1nc2ccccc2s1` (stereo not drawn) the Potency was inconclusive: 50.1 µM [inhibitor, single point]. In the case of `CCn1ncc(CN2CCC(C(=O)Nc3cccc(-c4cccc(F)c4)c3)CC2)c1C`, the Potency is reported as “inactive”. For `O=C(Nc1ccccc1)c1ccc(NCCc2ccccc2)c([N+](=O)[O-])c1`, the Potency was inconclusive: 31.6 µM [fluorescent, partial curve]. With `O=C(CC1Nc2ccccc2NC1=O)c1ccccc1` (stereo not drawn) the Potency was inconclusive: 31.6 µM [fluorescent, side channel, partial curve]. `COc1cc(C(=O)NCc2nnc(SCC(=O)Nc3nc4ccccc4s3)o2)cc(OC)c1OC` was tested, and the Potency was inconclusive: 1 µM [fluorescent, side channel, full curve, poor fit]. In the case of `COc1ccc([C@H]2[C@@H](C#N)[C@H](C#N)N3CCCN23)cc1`, the Potency is reported as “inactive”. For `CCCCCCCNc1nc(Cl)nc(NCCO)n1`, the Potency was inconclusive: 39.8 µM [inhibitor, partial curve]. `CCS(=O)(=O)Nc1ccccc1C(N)=O` was tested, and the Potency was inconclusive: 63.1 µM [fluorescent, side channel, single point]. With `Oc1ccccc1N=Cc1c(O)ccc2ccccc12` the Potency was inconclusive: 70.8 µM [fluorescent, side channel, single point]. For `CCOC(=O)CC1=C(C(=O)OCC)C(c2ccncc2)C(C#N)=C(N)O1` (stereo not drawn), the Potency was inconclusive: 89.1 µM [inhibitor, single point]. In the case of `CCC(NC(=S)NCc1ccc(F)cc1)c1ccc(C(C)C)cc1` (stereo not drawn), the Potency is reported as “inactive”. For `CCc1ccc(Nc2ccc(C(=O)O)cc2[N+](=O)[O-])cc1`, the Potency was inconclusive: 79.4 µM [inhibitor, single point]. In the case of `O=C(C[n+]1cccc(NC(=O)c2ccccc2)c1)c1ccc(NC(=O)c2ccccc2)cc1`, the Potency is reported as inconclusive: 39.8 µM [quencher, side channel, partial curve]. With `Cn1cc(C(=O)Nc2ccc(Cl)cc2)c(C(F)(F)F)n1` the Potency was “inactive”. `CC(C)OC(=O)C(C(=O)C(F)(F)F)c1cc(NS(=O)(=O)c2ccc3ccccc3c2)c2ccccc2c1O` (stereo not drawn) was tested, and the Potency was “inactive”. `O=c1[nH]c2cc(C(F)(F)F)ccc2n1-c1cc(C(F)(F)F)ccc1O` was tested, and the Potency was inconclusive: 1.78 µM [inhibitor, partial curve, poor fit]. `O=C1CCCN2N=C(SCC(=O)Nc3nccs3)SC2=N1` was tested, and the Potency was inconclusive: 39.8 µM [fluorescent, side channel, partial curve]. With `CCc1ccc(NC(=S)N(CCCN2CCOCC2)Cc2ccccn2)cc1` the Potency was inconclusive: 2.51 µM [fluorescent, side channel, full curve]. `CSc1nc(N)c2c3c(sc2n1)CN(C)CC3` was tested, and the Potency was inconclusive: 31.6 µM [fluorescent, side channel, partial curve]. With `O=C1CCc2ccc(NS(=O)(=O)c3ccc(F)cc3)cc2N1` the Potency was inconclusive: 1.26 µM [fluorescent, side channel, full curve, poor fit]. `C/C(=N\NC(N)=O)c1ccccc1` was tested, and the Potency was “inactive”. For `Cc1cc(-c2cccs2)c2c(N)c(C(=O)c3ccc4c(c3)OCO4)sc2n1`, the Potency was inconclusive: 31.6 µM [fluorescent, side channel, partial curve]. `Cc1cccc(NC(=O)/C=C/c2ccc([N+](=O)[O-])s2)c1` was tested, and the Potency was “inactive”. For `Cc1ccc(NC(=O)C2=C(O)CCn3c2nc2ccccc23)cc1`, the Potency was inconclusive: 35.5 µM [inhibitor, partial curve]. `COc1ccccc1/C=C/C=c1\sc2nc(=O)c(Cc3ccccc3)nn2c1=O` was tested, and the Potency was “inactive”. For `O=S1(=O)N=C(Nc2ccc(N3CCOCC3)c(Cl)c2)c2ccccc21`, the Potency was inconclusive: 7.94 µM [fluorescent, side channel, partial curve]. `COc1ccccc1N1C(=O)C2C(C(=O)c3ccccc3)=NN(c3ccc(Br)cc3)C2C1=O` (stereo not drawn) was tested, and the Potency was inconclusive: 39.8 µM [fluorescent, side channel, single point]. For `Nc1c(C(=O)Nc2ccccc2F)sc2nc(Cc3ccccc3)cc(C(F)(F)F)c12`, the Potency was inconclusive: 63.1 µM [fluorescent, side channel, single point]. For `Cc1c(Cc2ccccc2)sc(NC(=O)C(C)(C)C)c1C(N)=O`, the Potency was inconclusive: 35.5 µM [fluorescent, side channel, partial curve]. With `Cc1ccc(-n2[nH]c(C)c(C=Nc3ccc(S(=O)(=O)Nc4nccs4)cc3)c2=O)c(C)c1` the Potency was “inactive”. `CCOC(=O)c1nc(C)nc(Sc2n[nH]c(-c3cc(C(F)(F)F)cc(C(F)(F)F)c3)n2)c1C` was tested, and the Potency was inconclusive: 35.5 µM [inhibitor, single point].
